Assay results taken from article PMC5175178, “Development of an in-vivo active reversible butyrylcholinesterase inhibitor” (Scientific Reports, 2016).
Counter-ions that a name gives are not always drawn.

System: scopolamine-induced memory impairment in mice
Test: Passive avoidance task, scopolamine-induced memory impairment
Assay type: in vivo, Albino Swiss (CD–1 Krf) mice
Settings: scopolamine-treated control, 1 mg kg^−1 IP (vehicle-treated 178 s)

CN1[C@@H]2C[C@@H](OC(=O)[C@H](CO)c3ccccc3)C[C@H]1[C@@H]1O[C@@H]12 [scopolamine, (−)-Scopolamine hydrobromide]
step-through latency, retention trial: 23 s
